Experimental data: patent US20160041176A1
No constants are given. Whether binding was seen depends on the method and setting. Some results given as binding are weak or reduced against the parent protein; the word gives no strength.

Protein sequences, listed by entry. Tags and fused reporters are not part of them. Lines headed by an entry give the natural chain unless they say otherwise; changes in a name come on top.
UniProt P04386: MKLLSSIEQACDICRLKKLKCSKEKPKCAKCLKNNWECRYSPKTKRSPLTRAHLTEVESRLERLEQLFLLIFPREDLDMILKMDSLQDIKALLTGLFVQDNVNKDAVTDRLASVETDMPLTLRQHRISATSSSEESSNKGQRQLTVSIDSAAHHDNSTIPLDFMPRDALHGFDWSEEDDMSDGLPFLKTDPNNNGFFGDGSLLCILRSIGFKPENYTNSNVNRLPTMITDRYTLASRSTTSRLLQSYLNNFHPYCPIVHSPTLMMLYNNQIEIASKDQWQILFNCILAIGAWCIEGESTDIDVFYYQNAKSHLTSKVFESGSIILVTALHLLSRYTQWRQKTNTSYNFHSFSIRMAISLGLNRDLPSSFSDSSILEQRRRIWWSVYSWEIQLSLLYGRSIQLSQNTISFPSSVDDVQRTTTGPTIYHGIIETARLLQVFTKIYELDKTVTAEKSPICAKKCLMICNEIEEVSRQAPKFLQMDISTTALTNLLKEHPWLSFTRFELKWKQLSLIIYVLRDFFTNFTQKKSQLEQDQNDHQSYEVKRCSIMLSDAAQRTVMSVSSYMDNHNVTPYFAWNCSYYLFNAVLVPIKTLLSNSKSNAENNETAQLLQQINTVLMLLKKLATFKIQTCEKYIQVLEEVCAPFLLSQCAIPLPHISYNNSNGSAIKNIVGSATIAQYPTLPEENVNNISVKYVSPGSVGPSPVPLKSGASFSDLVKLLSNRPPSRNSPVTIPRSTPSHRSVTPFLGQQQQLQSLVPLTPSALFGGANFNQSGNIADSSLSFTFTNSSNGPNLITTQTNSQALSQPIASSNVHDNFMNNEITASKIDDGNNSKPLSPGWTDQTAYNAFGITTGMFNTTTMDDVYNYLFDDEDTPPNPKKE
UniProt P31749: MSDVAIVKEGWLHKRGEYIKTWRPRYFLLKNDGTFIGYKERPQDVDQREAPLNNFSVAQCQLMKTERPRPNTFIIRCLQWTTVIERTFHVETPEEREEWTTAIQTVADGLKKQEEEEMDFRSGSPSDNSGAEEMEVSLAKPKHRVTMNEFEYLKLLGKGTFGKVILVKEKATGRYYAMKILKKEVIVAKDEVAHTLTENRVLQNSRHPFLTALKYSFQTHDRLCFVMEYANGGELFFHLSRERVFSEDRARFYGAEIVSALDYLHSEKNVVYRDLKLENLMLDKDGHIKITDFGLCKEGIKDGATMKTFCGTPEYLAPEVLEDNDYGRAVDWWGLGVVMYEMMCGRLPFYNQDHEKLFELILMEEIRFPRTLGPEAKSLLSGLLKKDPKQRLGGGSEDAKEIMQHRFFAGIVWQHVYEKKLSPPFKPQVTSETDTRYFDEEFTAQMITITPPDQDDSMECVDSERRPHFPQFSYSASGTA

Target: carboxyl-terminal regulatory domain (RD) of human Akt1 fused to GAL4DB (human) (UniProt P04386+P31749)
Assay: yeast two-hybrid binding assay

binding: binds
B1: protein encoded by the F-10 and F-12 cDNAs (C-terminal region of Girdin, residues 1217-1870) (protein, not shown: large carriers)
chain: MLKVEQEKMLLENKNHETVAAEYKKLCGENDRLNHTYSQLLKETEVLQTDHKNLKSLLNNSKLEQTRLEAEFSKLKEQYQQLDITSTKLNNQCELLSQLKGNLEEENRHLLDQIQTLMLQNRTLLEQNMESKDLFHVEQRQYIDKLNELRRQKEKLEEKIMDQYKFYDPSPPRRRGNWITLKMRKLIKSKKDINRERQKSLTLTPTRSDSSEGFLQLPHQDSQDSSSVGSNSLEDGQTLGTKKSSMVALKRLPFLRNRPKDKDKMKACYRRSMSMNDLVQSMVLAGQWTGSTENLEVPDDISTGKRRKELGAMAFSTTAINFSTVNSSAGFRSKQLVNNKDTTSFEDISPQGVSDDSSTGSRVHASRPASLDSGRTSTSNSNNNASLHEVKAGAVNNQSRPQSHSSGEFSLLHDHEAWSSSGSSPIQYLKRQTRSSPVLQHKISETLESRHHKIKTGSPGSEVVTLQQFLEESNKLTSVQIKSSSQENLLDEVMKSLSVSSDFLGKDKPVSCGLARSVSGKTPGDFYDRRTTKPEFLRPGPRKTEDTYFISSAGKPTPGTQGKIKLVKESSLSRQSKDSNPYATLPRASSVISTAEGTTRRTSIHDFLTKDSRLPISVDSPPAAADSNTTAASNVDKVQESRNSKSRSREQQSS
